This experiment concerns CD2F1 mice, L1210 leukemia ip, survival T/C. The experiment is described as follows: NCI In Vivo Anticancer Drug Screen. Data for tumor model L1210 Leukemia (intraperitoneal) in CD2F1 (CDF1) mice. As to conditions: higher T/C = longer survival. The procedure, abridged: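 Mice carrying a transplanted tumor received test compound or vehicle alone. The value is the measurement in the treated group divided by that in the vehicle-treated control group.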

Setting [1] is: T/C endpoint: mean survival time, dose: 400.0 mg/kg/injection, schedule: Q01DX009 (ip), vehicle: saline with Tween-80.
Setting [2] is: T/C endpoint: mean survival time, dose: 400.0 mg/kg/injection, schedule: Q04DX003 (ip), vehicle: saline with Tween-80.

The list does not hold the whole screen: it gathers tests that were run many times, whatever their T/C, doses with no T/C, and many T/C values between a quarter and a half above the control. Further doses and runs are listed elsewhere. T/C is the treated group as % of the vehicle group. Some entries give survivors of the animals treated and no T/C: the source files T/C as zero there, which appears to mark a toxic dose or a test without result, not a measured value. Some survivor counts are full or nearly so, which does not show that the dose was tolerated: the source hardly ever lists a survival T/C far under the control, and the zero likely stands for such cases as well. Survivors were counted at the toxicity check, usually on the fifth day, unless a day is given; later deaths do not show. Schedules are NCI's codes, taken here to give the interval after Q, in days (D) or hours (H), and the number of doses after X. For survival time, this PubChem deposit counts one and a half times the control or more as active, and values a quarter to a half above the control carry no call in these data; other NCI protocols may use other cut-offs. Additions like (4×) stand for listed records that agree. Some entries were tested several times; the values are given in rising order. Some T/C values are followed by the survivors on the day toxicity was checked, most often the fifth; where none is given, no animal had died by that day.

Turning to `Nc1nc(=S)c2[nH]cnc2[nH]1`, the T/C (T/C endpoint: mean survival time, dose: 0.38 mg/kg/injection, schedule: Q01DX009 (ip), vehicle: acid diluted with saline) was 143 % of control; the T/C (T/C endpoint: mean survival time, dose: 0.43 mg/kg/injection, schedule: Q01DX009 (ip), vehicle: clinical formulation) was 144 % of control; the T/C (T/C endpoint: mean survival time, dose: 0.43 mg/kg/injection, schedule: Q01DX009 (ip), vehicle: saline) was 138 % of control; the T/C (T/C endpoint: mean survival time, dose: 0.5 mg/kg/injection, schedule: Q01DX005 (ip), vehicle: alkali diluted with saline) is 145 % of control; the T/C (T/C endpoint: mean survival time, dose: 0.5 mg/kg/injection, schedule: Q01DX009 (ip), vehicle: acid diluted with saline) is 143 % of control; the T/C (T/C endpoint: mean survival time, dose: 0.5 mg/kg/injection, schedule: Q01DX009 (ip), vehicle: alkali diluted with saline) is 135 % of control. In addition, the T/C reads like this: (T/C endpoint: mean survival time, dose: 0.5 mg/kg/injection, schedule: Q01DX009 (ip), vehicle: saline) 143, 154, 158, 171 % of control; (T/C endpoint: mean survival time, dose: 0.66 mg/kg/injection, schedule: Q01DX009 (ip), vehicle: saline) 143 % of control; (T/C endpoint: mean survival time, dose: 0.75 mg/kg/injection, schedule: Q01DX009 (ip), vehicle: acid diluted with saline) 147 and 148 % of control; (T/C endpoint: mean survival time, dose: 0.98 mg/kg/injection, schedule: Q01DX009 (ip), vehicle: clinical formulation) 147 % of control; (T/C endpoint: mean survival time, dose: 0.98 mg/kg/injection, schedule: Q01DX009 (ip), vehicle: saline) 144 % of control; (T/C endpoint: mean survival time, dose: 1.0 mg/kg/injection, schedule: Q01DX009 (ip), vehicle: acid diluted with saline) 143 % of control. Moreover, the T/C is, setting by setting: (T/C endpoint: mean survival time, dose: 1.0 mg/kg/injection, schedule: Q01DX009 (ip), vehicle: alkali diluted with saline) 131 and 147 % of control; (T/C endpoint: mean survival time, dose: 1.0 mg/kg/injection, schedule: Q01DX009 (ip), vehicle: other) 128 % of control; (T/C endpoint: mean survival time, dose: 1.0 mg/kg/injection, schedule: Q01DX009 (ip), vehicle: saline) 159, 160, 193, 195, 203 % of control; (T/C endpoint: mean survival time, dose: 1.3 mg/kg/injection, schedule: Q01DX009 (ip), vehicle: alkali diluted with saline) 147 % of control; (T/C endpoint: mean survival time, dose: 1.8 mg/kg/injection, schedule: Q01DX009 (ip), vehicle: alkali diluted with saline) 146 % of control; (T/C endpoint: mean survival time, dose: 2.0 mg/kg/injection, schedule: Q01DX005 (ip), vehicle: water) 133 % of control. For the same compound, the T/C reads like this: (T/C endpoint: mean survival time, dose: 2.0 mg/kg/injection, schedule: Q01DX007 (ip), vehicle: saline) 142 % of control; (T/C endpoint: mean survival time, dose: 2.0 mg/kg/injection, schedule: Q01DX009 (ip), vehicle: acid diluted with saline) 139 % of control; (T/C endpoint: mean survival time, dose: 2.0 mg/kg/injection, schedule: Q01DX009 (ip), vehicle: alkali diluted with saline, evaluated on day 30) 134 and 145 % of control; (T/C endpoint: mean survival time, dose: 2.0 mg/kg/injection, schedule: Q01DX009 (ip), vehicle: alkali diluted with saline, evaluated on day 60) 142 % of control; (T/C endpoint: mean survival time, dose: 2.0 mg/kg/injection, schedule: Q01DX009 (ip), vehicle: saline) 148, 154, 162, 192, 206 % of control; (T/C endpoint: mean survival time, dose: 2.2 mg/kg/injection, schedule: Q01DX009 (ip), vehicle: saline) 143 % of control. Further, the T/C runs as follows: (T/C endpoint: mean survival time, dose: 2.25 mg/kg/injection, schedule: Q04DX003 (ip), vehicle: acid diluted with saline) 133 and 136 % of control; (T/C endpoint: mean survival time, dose: 2.5 mg/kg/injection, schedule: Q04DX003 (ip), vehicle: alkali diluted with saline) 139 and 140 % of control; (T/C endpoint: mean survival time, dose: 4.0 mg/kg/injection, schedule: Q01DX005 (ip), vehicle: water) 132 % of control; (T/C endpoint: mean survival time, dose: 4.0 mg/kg/injection, schedule: Q01DX009 (ip), vehicle: alkali diluted with saline) 127 and 141 % of control; (T/C endpoint: mean survival time, dose: 4.0 mg/kg/injection, schedule: Q01DX009 (ip), vehicle: saline) 144, 157, 161, 168, 178 % of control; (T/C endpoint: mean survival time, dose: 4.0 mg/kg/injection, schedule: Q04DX003 (ip), vehicle: alkali diluted with saline) 132 % of control. Besides, the T/C was 146 % of control (T/C endpoint: mean survival time, dose: 4.5 mg/kg/injection, schedule: Q04DX003 (ip), vehicle: acid diluted with saline); 136, 142, 143 % of control (T/C endpoint: mean survival time, dose: 5.0 mg/kg/injection, schedule: Q04DX003 (ip), vehicle: alkali diluted with saline); 147 % of control (T/C endpoint: mean survival time, dose: 8.0 mg/kg/injection, schedule: Q01DX005 (ip), vehicle: alkali diluted with saline); 134 % of control (T/C endpoint: mean survival time, dose: 8.0 mg/kg/injection, schedule: Q04DX003 (ip), vehicle: alkali diluted with saline); 135, 139, 141 % of control (T/C endpoint: mean survival time, dose: 10.0 mg/kg/injection, schedule: Q04DX003 (ip), vehicle: alkali diluted with saline); 130 % of control [7 of 8 alive] (T/C endpoint: mean survival time, dose: 16.0 mg/kg/injection, schedule: Q04DX003 (ip), vehicle: alkali diluted with saline). Moreover, the T/C by setting is: (T/C endpoint: mean survival time, dose: 18.0 mg/kg/injection, schedule: Q04DX003 (ip), vehicle: acid diluted with saline) 149 % of control; (T/C endpoint: mean survival time, dose: 20.0 mg/kg/injection, schedule: Q04DX003 (ip), vehicle: alkali diluted with saline) 143 % of control (2×); (T/C endpoint: mean survival time, dose: 32.0 mg/kg/injection, schedule: Q04DX003 (ip), vehicle: alkali diluted with saline) 129 % of control; (T/C endpoint: mean survival time, dose: 40.0 mg/kg/injection, schedule: Q04DX003 (ip), vehicle: alkali diluted with saline) 129, 138, 143 % of control; (T/C endpoint: median survival time, dose: 0.43 mg/kg/injection, schedule: Q01DX009 (ip), vehicle: alkali diluted with saline) 136 % of control; (T/C endpoint: median survival time, dose: 0.52 mg/kg/injection, schedule: Q01DX009 (ip), vehicle: acid diluted with saline) 135 and 141 % of control. Moreover, the T/C (T/C endpoint: median survival time, dose: 0.72 mg/kg/injection, schedule: Q01DX009 (ip), vehicle: alkali diluted with saline) was 136 % of control; the T/C (T/C endpoint: median survival time, dose: 1.2 mg/kg/injection, schedule: Q01DX009 (ip), vehicle: alkali diluted with saline) was 140 % of control; the T/C (T/C endpoint: median survival time, dose: 1.44 mg/kg/injection, schedule: Q01DX009 (ip), vehicle: acid diluted with saline) was 142 % of control; the T/C (T/C endpoint: median survival time, dose: 1.62 mg/kg/injection, schedule: Q04DX003 (ip), vehicle: alkali diluted with saline) is 139 % of control; the T/C (T/C endpoint: median survival time, dose: 2.0 mg/kg/injection, schedule: Q01DX009 (ip), vehicle: alkali diluted with saline) was 140 % of control; the T/C (T/C endpoint: median survival time, dose: 2.4 mg/kg/injection, schedule: Q01DX009 (ip), vehicle: acid diluted with saline) is 149 % of control. For the same compound, the T/C is, setting by setting: (T/C endpoint: median survival time, dose: 3.33 mg/kg/injection, schedule: Q01DX009 (ip), vehicle: alkali diluted with saline) 140 % of control; (T/C endpoint: median survival time, dose: 10.0 mg/kg/injection, schedule: Q04DX003 (ip), vehicle: alkali diluted with saline) 145 % of control; (T/C endpoint: median survival time, dose: 27.0 mg/kg/injection, schedule: Q01DX001 (ip), vehicle: alkali diluted with saline) 146 % of control; (T/C endpoint: median survival time, dose: 40.0 mg/kg/injection, schedule: Q04DX003 (ip), vehicle: alkali diluted with saline) 138 % of control; (T/C endpoint: median survival time, dose: 60.0 mg/kg/injection, schedule: Q01DX001 (ip), vehicle: alkali diluted with saline) 149 % of control; (T/C endpoint: median survival time, dose: 80.0 mg/kg/injection, schedule: Q04DX003 (ip), vehicle: alkali diluted with saline) 129 % of control [4 of 6 alive]. The survivor count is, setting by setting: (T/C endpoint: mean survival time, dose: 71.0 mg/kg/injection, schedule: Q01DX001 (ip), vehicle: alkali diluted with saline) 2 of 10; (T/C endpoint: median survival time, dose: 90.0 mg/kg/injection, schedule: Q01DX001 (ip), vehicle: alkali diluted with saline) 4 of 10.
As to `CN(C)N=Nc1ccc(S(=O)(=O)Nc2ncccn2)cc1`, the survivor count (T/C endpoint: mean survival time, dose: 200.0 mg/kg/injection, schedule: Q01DX009 (ip), vehicle: saline with Tween-80) is 6 of 6 and the survivor count under setting [1] was 5 of 6. Further, the T/C (T/C endpoint: mean survival time, dose: 200.0 mg/kg/injection, schedule: Q04DX003 (ip), vehicle: saline with Tween-80) was 129 % of control.
Consider `CN(C)C1CCCC(OC(=O)c2ccccc2)C1` (stereo not given), for which the survivor count (T/C endpoint: mean survival time, dose: 400.0 mg/kg/injection, schedule: Q01DX001 (ip), vehicle: saline) was 0 of 6.
In the case of `CCCCCCCC/C=C\CCCCCCCCNC(C)=O`, the survivor count under setting [1] is listed as 2 of 6.
In the case of `Cc1cc(Cl)c(OCC(=O)O)c(Cl)c1`, the survivor count under setting [2] is listed as 5 of 6.
For `O=C(O)c1cc2ccccc2o1`, the survivor count (T/C endpoint: mean survival time, dose: 400.0 mg/kg/injection, schedule: Q01DX001 (ip), vehicle: saline with Tween-80) is 0 of 3 and the survivor count under setting [2] is reported as 6 of 6.
For `CC(=O)Nc1ccc([N+](=O)[O-])cc1[N+](=O)[O-]`, under setting [2], the survivor count is given as 4 of 6.

Values taken from PubChem BioAssay AID256 (DTP/NCI, 2004).
